Source: PubChem BioAssay AID1259308 (NCATS, 2017)

Test: 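Genes whose loss raises luciferase production in HEK293 cells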 (primary screen)
Cells: human HEK293 embryonic kidney cells stably expressing firefly luciferase (HEK-CMV-Luc2-Hygro)
Reagents: single siRNA against human genes, 0.8 pmol siRNA per well
Timing: 72 h
Detection: 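Luciferase light (ONE-Glo) measured on one replicate plate set and viability (CellTiter-Glo) on the other, scaled to a negative control siRNA, with robust z-scores and luciferase per cell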
Scale: total luciferase, z-score: higher = more reporter protein produced
Hit rule: 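Active when the median/MAD z-score for overall luciferase is greater than 3; a gene was taken forward for validation with new siRNAs if at least two of its three siRNAs passed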
Meaning of the calls: active = raised luciferase; inactive = no rise
This is one part, drawn at random, of about 59,000 reagents. In the full data, about 1,510 (2.6%) got an active call. 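Calls use total luciferase alone and ignore viability, so some active siRNAs may act by altering cell number.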 Reagents against one gene are numbered here. Further read-outs or replicates are left out here. Reagent sequences are not shown.

total luciferase, z-score, by gene and reagent
FAM76B: #1 1.23 inactive; #2 -0.372 inactive; #3 -0.712 inactive
PAX3: #1 -0.242 inactive; #2 1.37 inactive; #3 -1.05 inactive
FAM135A: #1 -0.665 inactive; #2 -1.38 inactive; #3 -0.0549 inactive
PPTC7: #1 -0.231 inactive; #2 -0.894 inactive; #3 0.652 inactive
GBP2: #1 0.0323 inactive; #2 0.492 inactive; #3 -1.28 inactive
KCNIP1: #1 0.279 inactive; #2 1.69 inactive; #3 -0.392 inactive
TNFRSF10A: #1 0.0778 inactive; #2 -0.213 inactive; #3 -0.159 inactive
CLEC16A: #1 -1.41 inactive; #2 -1.23 inactive; #3 2.53 inactive
ILRUN: #1 -1.67 inactive; #2 1.08 inactive; #3 2.34 inactive
DESI2: #1 0.00844 inactive; #2 -0.85 inactive; #3 0.627 inactive
PPP3R1: #1 -0.702 inactive; #2 -0.822 inactive; #3 -0.769 inactive
MYH3: #1 -1.02 inactive; #2 -0.17 inactive; #3 0.0425 inactive
RALGDS: #1 -0.0772 inactive; #2 0.277 inactive; #3 -0.486 inactive
ITPRIPL2: #1 4.45 active; #2 -0.377 inactive; #3 0.808 inactive
CD74: #1 0.61 inactive; #2 0.569 inactive; #3 -0.598 inactive
CTNND1: #1 -0.396 inactive; #2 -0.897 inactive; #3 1.67 inactive
ZBTB11: #1 0.279 inactive; #2 2.78 inactive; #3 -0.24 inactive
EFEMP1: #1 -0.0783 inactive; #2 -1.2 inactive; #3 -0.137 inactive
KRT26: #1 -0.89 inactive; #2 -0.546 inactive; #3 1.49 inactive

Part of the list above, reformatted.
{"Gene":"MYH3","reagent":1,"total luciferase, z-score":-1.02,"call":"inactive"}
{"Gene":"MYH3","reagent":2,"total luciferase, z-score":-0.17,"call":"inactive"}
{"Gene":"MYH3","reagent":3,"total luciferase, z-score":0.0425,"call":"inactive"}
{"Gene":"RALGDS","reagent":1,"total luciferase, z-score":-0.0772,"call":"inactive"}
{"Gene":"RALGDS","reagent":2,"total luciferase, z-score":0.277,"call":"inactive"}
